Screening data, single-dose tests

The values are deposited in ChEMBL (CHEMBL3988442, “University of Dundee, Small-Polar-MMV Screening Library” (2021)).

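Whole-parasite assay of Trypanosoma brucei over 72 hours; the read-out is not stated. Compounds at 30 µM. The record gives no direction; compounds that gave an IC50 in retests scored well above the rest, so higher reads as stronger inhibition. Values scatter widely below zero; nearly all retest evidence comes from the higher of the two concentrations used. Size under these conditions: about 64,000 compounds, about 940 of them at 50% or above in at least one test.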

The filed quantity is “Percent Effect” (%). The record does not define 0% and 100%; most values in the screen are far below 50% and negative numbers occur (in some assays of this library far below -100). Compounds were drawn at random from those tested, without regard to their results.

Result for Cc1cnn(CC2CCCN2Cc2nc3ccccc3n2C)c1 (stereo not drawn) was 29.68%. COCc1nc(C(=O)NS(=O)(=O)c2c(C)c(C)cc(C)c2C)cs1 read -6.08%. For CC(C)(C)c1ncc2c(n1)CN(C(=O)c1ccc(-n3cnnn3)cc1)C2 the result was -39.02%. Cc1ccc(C(=O)NCC(O)c2cccc(F)c2)c(=O)[nH]1 (stereo not drawn) gave 20.73%. Cc1ccc(-c2nc(CN3CC(n4nc(C)cc4C)C3)no2)cc1 read -6.715%. Cn1cnc2c1CCN(CCCOc1ccc(C#N)cc1)C2 read -30.68%. With CC(C)[C@H](NS(C)(=O)=O)C(=O)NCc1cc(-c2cccc(Cl)c2)nn1C the screen gave -7.455%. CN(C)CC(=O)N1CCc2onc(Cn3cccn3)c2C1 read 36.34%.

For CS(=O)(=O)NCC1CCCN(C(=O)COc2ccc(F)cc2)C1 (stereo not drawn) the result was -16.39%. Result for Cc1nc[nH]c1CN(Cc1ccccc1)C1CC(C)(C)NC(C)(C)C1.O=C(O)CC(O)(CC(=O)O)C(=O)O was 9.969%. Cc1nc(CN2CCCC(c3cc(C(N)=O)[nH]n3)C2)oc1C (stereo not drawn) read -6.394%. Cc1nc(CN2CCCC(Nc3ncnc4ccccc34)C2)no1 (stereo not drawn) read -69.32%. Result for COc1ccc2nnc(CCC(=O)Nc3nc4c(s3)CCCC4)n2n1 was -20.24%. Cc1ccc2nc3n(c2c1)[C@@H](CNCc1nccs1)COC3 gave 16.62%. With CC1CN(C(=O)c2cc(=O)[nH]c3ccc(F)cc23)CCO1 (stereo not drawn) the screen gave -39.77%. For O=C(O)C(F)(F)F.[H][C@@]12C[C@@H](C(=O)Nc3cnccn3)CN(Cc3ccsc3)[C@]1([H])CCO2 the result was 18.47%.

Cc1cc(CNC(=O)COc2ccccc2F)c(C)o1 read 16.98%. With O=C(NCCCn1ccnc1)Nc1ccn(CCc2ccccn2)n1 the screen gave -70.65%. For Cc1nnc(CN2CCCC2c2c(C)nn(C)c2Cl)o1 (stereo not drawn) the result was 11.72%. Result for Cc1ncc(C(=O)N2CC(C(=O)N3CCOCC3)C2)c(C)n1 was -7.888%. With CCn1c(CN(C)C)nnc1C1CCN(Cc2ccc(Cl)cc2F)CC1 the screen gave -19.25%. CNc1cnc(CC2COCCN(Cc3ccccc3)C2)cn1 (stereo not drawn) gave 3.424%. Cc1nc(CN(C)Cc2nc(-c3ccncc3)no2)co1 read -7.974%. Result for COc1ccccc1-c1nnc([C@H]2CCN(C(C)=O)C2)o1 was -1.996%.

CC(C)(C)SCC(=O)NC(C)(C(N)=O)c1cccc(Cl)c1 (stereo not drawn) read -20.76%. O=C(c1cccnc1O)N1CCCN(c2cccnn2)CC1 read 0.1877%. CCc1cc(N2CCS(=O)(=O)CC2)n2nc(C)c(C)c2n1 read -16.62%. CC(Cn1cccn1)NCc1csc(Cc2ccccc2)n1 (stereo not drawn) read 32.28%. O=C(NC1(c2nccs2)CCCC1)c1cc(C2CC2)[nH]n1 gave -7.816%. With CC(=O)N(C)Cc1cccc(NC(=O)c2cnn(C)c2C)c1 the screen gave -16.57%. CC(O)CN1CCN(C(=O)c2cccn2Cc2ccccc2)CC1 (stereo not drawn) gave -6.797%. COc1ccc(-c2nc(CN3CCc4c(ncn4C)C3)cs2)cc1 gave -21.93%.

For CC(C)(C)c1coc([C@@H]2COCCN2Cc2c[nH]cn2)n1 the result was 5.798%. Result for COc1ccc(C(C)NCCc2ccc(NC(C)=O)cc2)cc1F (stereo not drawn) was 8.972%. Result for CS(=O)(=O)CCCOc1cccc(-n2ccnc2)c1 was -26.4%. With Cc1ccc(C(=O)N2CCC(Oc3ccc(F)cc3F)CC2)c(=O)[nH]1 the screen gave -64.2%. O=C(O)C(F)(F)F.O=C(O)C(F)(F)F.[H][C@@]12CN(Cc3cccs3)C[C@]1([H])OCCN2c1ccc(C)nn1 gave -4.781%. Cc1nn(C)cc1-c1ccnc(N2CCSCC2)n1 read -7.581%. Cc1ccc(OCCSCCn2nc3ccccn3c2=O)cc1 read 8.083%. With COc1ccc(-c2nnc(SC(C)C(=O)NC(C)(C)C)[nH]2)c(OC)c1 (stereo not drawn) the screen gave 34.71%.

Cc1nn(C)c(Cl)c1C1CCCN1C(=O)c1ccc[nH]1 (stereo not drawn) gave -3.27%. COc1ccccc1OCCC(=O)N1CCCC1Cn1cc(C)cn1 (stereo not drawn) gave -8.659%. For O=C1COC2(COCCN(c3cnccn3)C2)CN1c1cccc(F)c1 (stereo not drawn) the result was -27.52%. Cc1nc(C2CCCN(C(=O)c3cc(Cl)c4c(c3)OCO4)C2)no1 (stereo not drawn) read -10.45%. Result for Cc1cccc(Oc2ccccc2CNC(=O)C2CCNC(=O)C2)c1 (stereo not drawn) was -11.66%. Cn1c(CCCNC(=O)Nc2cn[nH]c2)nc2ccccc21 gave -60.56%. O=C(O)C(F)(F)F.[H][C@@]12CN(Cc3nccs3)C[C@H](C(=O)NCC3CC3)[C@]1([H])CCO2 read -26.56%. Result for c1cncc(CN(Cc2ccsc2)Cc2ccc(C3CCCCO3)o2)c1 (stereo not drawn) was -51.43%.

Result for Cc1cc(CNc2ccccc2N2CCCCC2)no1 was -66.17%.

Repeated from the top, 6 entries:

SMILES,percent effect
Cc1cnn(CC2CCCN2Cc2nc3ccccc3n2C)c1 (stereo not drawn),29.68%
COCc1nc(C(=O)NS(=O)(=O)c2c(C)c(C)cc(C)c2C)cs1,-6.08%
CC(C)(C)c1ncc2c(n1)CN(C(=O)c1ccc(-n3cnnn3)cc1)C2,-39.02%
Cc1ccc(C(=O)NCC(O)c2cccc(F)c2)c(=O)[nH]1 (stereo not drawn),20.73%
Cc1ccc(-c2nc(CN3CC(n4nc(C)cc4C)C3)no2)cc1,-6.715%
Cn1cnc2c1CCN(CCCOc1ccc(C#N)cc1)C2,-30.68%